Results published in the supplement of paper PMC10331698.
± gives the standard deviation of the averaged measurements. Most entries show no effect beyond the scatter of the controls.

What was measured:
Assay in all cases: level (log10 ratio to DMSO vehicle control); higher = higher biomarker level / cell amount than vehicle control
Perfluoro-1-iodohexane = compound: FC(F)(F)C(F)(F)C(F)(F)C(F)(F)C(F)(F)C(F)(F)I [Perfluoro-1-iodohexane]; conditions: in DMSO
Description: (§1)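 BioMAP Diversity Plus panel of 12 human primary cell co-culture systems (3C, 4H, LPS, SAg, BT, BF4T, BE3C, CASM3C, HDF3CGF, KF3CT, MyoF, Mphg). Compounds were added 1 h before stimulation and left for 24 h (MyoF 48 h; BT 72 h for soluble read-outs or 6 d for IgG). Biomarkers were read by ELISA, cytotoxicity by SRB, PBMC viability and proliferation by Alamar Blue. Each well value was divided by the mean of 8 DMSO control wells on the same plate and log10 transformed; duplicate blinded samples were tested at 4 concentrations.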

[1] = compound: C=CC(=O)OCC(F)(F)C(F)(F)C(F)(F)COC(=O)C=C [1H,1H,5H,5H-Perfluoro-1,5-pentanediol diacrylate]; conditions: 2200 nM; in DMSO
Description: as §1

Hexafluoroamylene glycol = compound: OCC(F)(F)C(F)(F)C(F)(F)CO [Hexafluoroamylene glycol]; conditions: 2200 nM; in DMSO
Description: as §1

[2] = compound: O=C(O)C(F)(F)C(F)(F)C(F)(F)C(F)(F)C(F)(F)C(F)(F)C(F)(F)C(F)(F)C(F)(F)C(F)(F)C(F)(F)C(F)(F)C(F)(F)F [Perfluorotetradecanoic acid]; conditions: in DMSO
Description: as §1

[3] = compound: C=CC(=O)OCCC(F)(F)C(F)(F)C(F)(F)C(F)(F)F [2-(Perfluorobutyl)ethyl acrylate]; conditions: 2200 nM; in DMSO
Description: as §1

[4] = compound: FC(F)(F)C(F)(C(F)(F)F)C(F)(F)C(F)(F)CC1CO1 [3-(Perfluoro-3-methylbutyl)-1,2-propenoxide]; conditions: in DMSO
Description: as §1

[5] = compound: O=C(O)C=C(C(F)(F)F)C(F)(F)F [3,3-Bis(trifluoromethyl)-2-propenoic acid]; conditions: in DMSO
Description: as §1

[6] = compound: O=S(=O)(O)C(F)(F)C(F)(F)C(F)(F)C(F)(F)C(F)(F)C(F)(F)F [Perfluorohexanesulfonic acid]; conditions: 2200 nM; in DMSO
Description: as §1

[7] = compound: O=C(Cl)C(F)(F)C(F)(F)C(F)(F)C(=O)Cl [Hexafluoroglutaryl chloride]; conditions: 2200 nM; in DMSO
Description: as §1

[8] = compound: C=CC(=O)OCCC(F)(F)C(F)(F)C(F)(F)C(F)(F)C(F)(F)C(F)(F)C(F)(F)C(F)(F)F [8:2 Fluorotelomer acrylate]; conditions: 2200 nM; in DMSO
Description: as §1

[9] = compound: OCCCC(F)(F)C(F)(F)C(F)(F)C(F)(F)C(F)(F)C(F)(F)C(F)(F)F [7:3 Fluorotelomer alcohol]; conditions: 2200 nM; in DMSO
Description: as §1

[10] = compound: FC(F)(I)C(F)(F)C(F)(F)C(F)(F)C(F)(F)C(F)(F)I [1,6-Diiodoperfluorohexane]; conditions: 2200 nM; in DMSO
Description: as §1

[11] = compound: O=S(=O)(O)CCC(F)(F)C(F)(F)C(F)(F)C(F)(F)F [4:2 Fluorotelomer sulfonic acid]; conditions: 2200 nM; in DMSO
Description: as §1

## SAg:CCL2/MCP-1
Perfluoro-1-iodohexane; 2200 nM
  level (log10): 0.0205 ± 0.0035
Perfluoro-1-iodohexane; 6700 nM
  level (log10): 0.006 ± 0.018
Perfluoro-1-iodohexane; 20000 nM
  level (log10): -0.0045 ± 0.021
Perfluoro-1-iodohexane; 60000 nM
  level (log10): 0.005 ± 0.05
[1]
  level (log10): -0.0055 ± 0.016
Hexafluoroamylene glycol
  level (log10): 0.0055 ± 0.013
[2]; 740 nM
  level (log10): -0.029 ± 0.038
[2]; 2200 nM
  level (log10): -0.0065 ± 0.022
[3]
  level (log10): -0.008 ± 0.027
[4]; 740 nM
  level (log10): 0.008 ± 0.045
[4]; 2200 nM
  level (log10): -0.019 ± 0.0085
[5]; 2200 nM
  level (log10): 0 ± 0.017
[5]; 6700 nM
  level (log10): -0.0145 ± 0.00071
[5]; 20000 nM
  level (log10): -0.0535 ± 0.0078
[5]; 60000 nM
  level (log10): -0.079 ± 0.042
[6]
  level (log10): 0.0125 ± 0.0092
[7]
  level (log10): 0.0085 ± 0.005
[8]
  level (log10): 0.0075 ± 0.028
[9]
  level (log10): 0.003 ± 0.02
[10]
  level (log10): 0.0185 ± 0.0092
[11]
  level (log10): 0.002 ± 0.0099

## CASM3C:M-CSF
Perfluoro-1-iodohexane; 2200 nM
  level (log10): 0.024 ± 0.044
Perfluoro-1-iodohexane; 6700 nM
  level (log10): -0.0125 ± 0.025
Perfluoro-1-iodohexane; 20000 nM
  level (log10): 0.0055 ± 0.032
Perfluoro-1-iodohexane; 60000 nM
  level (log10): 0.0085 ± 0.043
[1]
  level (log10): -0.006 ± 0.04
Hexafluoroamylene glycol
  level (log10): -0.012 ± 0.028
[2]; 740 nM
  level (log10): -0.002 ± 0.0042
[2]; 2200 nM
  level (log10): -0.0035 ± 0.023
[3]
  level (log10): 0.003 ± 0.041
[4]; 740 nM
  level (log10): 0.0025 ± 0.052
[4]; 2200 nM
  level (log10): -0.013 ± 0.0014
[5]; 2200 nM
  level (log10): -0.024 ± 0.016
[5]; 6700 nM
  level (log10): -0.0435 ± 0.0035
[5]; 20000 nM
  level (log10): -0.044 ± 0.02
[5]; 60000 nM
  level (log10): -0.068 ± 0.033
[6]
  level (log10): 0.029 ± 0.085
[7]
  level (log10): 0.0225 ± 0.016
[8]
  level (log10): 0.0105 ± 0.0092
[9]
  level (log10): 0.009 ± 0.0085
[10]
  level (log10): 0.001 ± 0.044
[11]
  level (log10): 0.0165 ± 0.042

## KF3CT:CD54/ICAM-1
Perfluoro-1-iodohexane; 2200 nM
  level (log10): -0.003 ± 0.014
Perfluoro-1-iodohexane; 6700 nM
  level (log10): 0.001 ± 0.0085
Perfluoro-1-iodohexane; 20000 nM
  level (log10): 0.008 ± 0.021
Perfluoro-1-iodohexane; 60000 nM
  level (log10): 0 ± 0.011
[1]
  level (log10): -0.0425 ± 0.018
Hexafluoroamylene glycol
  level (log10): -0.0285 ± 0.0064
[2]; 740 nM
  level (log10): -0.0265 ± 0.00071
[2]; 2200 nM
  level (log10): -0.014 ± 0.016
[3]
  level (log10): -0.0095 ± 0.019
[4]; 740 nM
  level (log10): 0.0015 ± 0.022
[4]; 2200 nM
  level (log10): 0 ± 0.016
[5]; 2200 nM
  level (log10): -0.0025 ± 0.019
[5]; 6700 nM
  level (log10): -0.007 ± 0.0057
[5]; 20000 nM
  level (log10): 0.008 ± 0.0071
[5]; 60000 nM
  level (log10): 0.022 ± 0.016
[6]
  level (log10): -0.0025 ± 0.015
[7]
  level (log10): -0.016
[8]
  level (log10): 0.001 ± 0.025
[9]
  level (log10): -0.0115 ± 0.021
[10]
  level (log10): -0.035 ± 0.028
[11]
  level (log10): -0.014 ± 0.025
